Source: the supplement of paper PMC12067093, “Discovery and optimisation of a covalent ligand for TRIM25 and its application to targeted protein ubiquitination” (Chemical Science, 2025)
Some of the results follow.

By UniProt entry, the sequences of proteins in these tests, tags left out. Where a name states a change or a piece, a line headed by the entry shows the natural chain unless it says otherwise.
UniProt O60566, whole entry, looked up: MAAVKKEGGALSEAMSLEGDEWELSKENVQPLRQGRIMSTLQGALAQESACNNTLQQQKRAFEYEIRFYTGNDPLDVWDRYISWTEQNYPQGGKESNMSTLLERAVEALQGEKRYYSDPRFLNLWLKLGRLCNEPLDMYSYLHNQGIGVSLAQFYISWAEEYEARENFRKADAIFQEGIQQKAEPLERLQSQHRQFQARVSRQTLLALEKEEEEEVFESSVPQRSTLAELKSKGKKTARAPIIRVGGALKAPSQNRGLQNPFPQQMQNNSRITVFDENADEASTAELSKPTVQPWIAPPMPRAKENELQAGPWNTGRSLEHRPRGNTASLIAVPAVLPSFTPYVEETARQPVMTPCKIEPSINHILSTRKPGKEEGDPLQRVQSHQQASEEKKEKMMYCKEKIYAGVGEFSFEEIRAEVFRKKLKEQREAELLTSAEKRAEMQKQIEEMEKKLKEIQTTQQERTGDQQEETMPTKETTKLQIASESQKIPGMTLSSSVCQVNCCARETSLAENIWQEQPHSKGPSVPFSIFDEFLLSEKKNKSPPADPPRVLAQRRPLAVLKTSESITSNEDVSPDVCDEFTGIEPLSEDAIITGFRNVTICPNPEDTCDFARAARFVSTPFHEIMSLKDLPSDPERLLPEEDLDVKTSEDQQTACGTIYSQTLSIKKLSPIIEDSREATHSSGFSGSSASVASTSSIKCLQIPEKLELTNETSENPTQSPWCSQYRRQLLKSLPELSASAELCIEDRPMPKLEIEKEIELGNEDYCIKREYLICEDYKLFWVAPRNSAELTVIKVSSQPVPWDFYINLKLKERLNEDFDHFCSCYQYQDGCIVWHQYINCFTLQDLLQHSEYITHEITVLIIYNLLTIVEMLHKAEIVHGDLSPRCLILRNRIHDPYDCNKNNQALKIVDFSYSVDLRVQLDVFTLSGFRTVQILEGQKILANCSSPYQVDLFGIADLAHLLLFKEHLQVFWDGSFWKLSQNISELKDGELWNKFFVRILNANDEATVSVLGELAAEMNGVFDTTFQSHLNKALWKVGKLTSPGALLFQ
UniProt P27708: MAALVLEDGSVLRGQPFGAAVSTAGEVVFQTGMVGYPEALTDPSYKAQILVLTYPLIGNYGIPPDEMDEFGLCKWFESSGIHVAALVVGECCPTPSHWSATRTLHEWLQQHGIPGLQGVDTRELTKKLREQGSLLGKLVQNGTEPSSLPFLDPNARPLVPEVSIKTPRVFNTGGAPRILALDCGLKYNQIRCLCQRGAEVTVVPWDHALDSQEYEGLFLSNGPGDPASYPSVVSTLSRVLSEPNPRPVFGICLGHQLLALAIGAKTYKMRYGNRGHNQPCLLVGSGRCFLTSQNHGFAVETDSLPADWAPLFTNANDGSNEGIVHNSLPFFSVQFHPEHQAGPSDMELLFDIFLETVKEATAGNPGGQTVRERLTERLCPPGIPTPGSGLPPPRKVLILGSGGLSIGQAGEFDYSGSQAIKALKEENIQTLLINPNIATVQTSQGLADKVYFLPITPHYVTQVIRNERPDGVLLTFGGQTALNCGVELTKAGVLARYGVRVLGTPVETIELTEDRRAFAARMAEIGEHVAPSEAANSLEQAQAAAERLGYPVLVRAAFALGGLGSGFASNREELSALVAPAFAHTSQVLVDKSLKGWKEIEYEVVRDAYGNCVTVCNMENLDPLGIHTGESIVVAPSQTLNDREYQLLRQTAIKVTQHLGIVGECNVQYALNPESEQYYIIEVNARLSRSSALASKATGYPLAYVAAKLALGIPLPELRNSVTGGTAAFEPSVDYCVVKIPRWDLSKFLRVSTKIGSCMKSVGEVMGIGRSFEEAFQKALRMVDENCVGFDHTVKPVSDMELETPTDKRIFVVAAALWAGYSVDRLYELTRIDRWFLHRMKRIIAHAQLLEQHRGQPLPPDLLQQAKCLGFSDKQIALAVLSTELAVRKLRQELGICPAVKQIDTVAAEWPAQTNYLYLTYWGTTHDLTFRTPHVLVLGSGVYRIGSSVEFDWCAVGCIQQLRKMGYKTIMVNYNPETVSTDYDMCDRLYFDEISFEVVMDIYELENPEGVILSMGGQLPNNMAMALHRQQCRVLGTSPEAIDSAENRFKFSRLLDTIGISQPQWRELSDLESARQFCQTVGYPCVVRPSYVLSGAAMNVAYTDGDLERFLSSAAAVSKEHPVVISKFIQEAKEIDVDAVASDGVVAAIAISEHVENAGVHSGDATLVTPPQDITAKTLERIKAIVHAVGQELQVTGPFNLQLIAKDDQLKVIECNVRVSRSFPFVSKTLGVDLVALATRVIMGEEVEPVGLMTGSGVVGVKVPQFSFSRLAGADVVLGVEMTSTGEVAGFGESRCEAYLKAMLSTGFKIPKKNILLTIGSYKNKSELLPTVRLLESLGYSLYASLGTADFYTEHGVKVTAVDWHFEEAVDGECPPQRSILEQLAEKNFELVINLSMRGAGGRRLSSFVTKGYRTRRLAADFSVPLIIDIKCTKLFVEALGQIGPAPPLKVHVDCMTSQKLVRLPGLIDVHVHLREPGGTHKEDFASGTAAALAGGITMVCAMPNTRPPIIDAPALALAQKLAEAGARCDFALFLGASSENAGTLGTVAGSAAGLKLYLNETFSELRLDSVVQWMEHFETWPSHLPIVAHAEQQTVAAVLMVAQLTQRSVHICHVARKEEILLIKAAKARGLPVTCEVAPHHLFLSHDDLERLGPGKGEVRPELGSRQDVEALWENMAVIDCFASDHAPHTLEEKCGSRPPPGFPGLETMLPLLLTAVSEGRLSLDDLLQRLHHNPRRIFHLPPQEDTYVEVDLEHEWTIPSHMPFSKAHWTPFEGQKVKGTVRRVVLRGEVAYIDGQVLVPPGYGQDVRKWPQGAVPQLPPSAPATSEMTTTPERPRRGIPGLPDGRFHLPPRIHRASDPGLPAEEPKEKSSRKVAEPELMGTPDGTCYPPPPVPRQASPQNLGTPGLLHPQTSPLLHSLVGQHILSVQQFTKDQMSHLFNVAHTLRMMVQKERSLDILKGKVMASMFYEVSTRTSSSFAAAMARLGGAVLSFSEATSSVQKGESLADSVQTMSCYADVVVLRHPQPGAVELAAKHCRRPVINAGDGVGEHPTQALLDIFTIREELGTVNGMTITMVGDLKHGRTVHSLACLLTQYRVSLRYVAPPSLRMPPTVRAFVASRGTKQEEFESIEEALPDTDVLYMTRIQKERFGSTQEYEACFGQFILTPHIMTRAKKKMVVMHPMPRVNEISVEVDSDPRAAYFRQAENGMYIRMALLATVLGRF
UniProt Q9H0E9, whole entry, looked up: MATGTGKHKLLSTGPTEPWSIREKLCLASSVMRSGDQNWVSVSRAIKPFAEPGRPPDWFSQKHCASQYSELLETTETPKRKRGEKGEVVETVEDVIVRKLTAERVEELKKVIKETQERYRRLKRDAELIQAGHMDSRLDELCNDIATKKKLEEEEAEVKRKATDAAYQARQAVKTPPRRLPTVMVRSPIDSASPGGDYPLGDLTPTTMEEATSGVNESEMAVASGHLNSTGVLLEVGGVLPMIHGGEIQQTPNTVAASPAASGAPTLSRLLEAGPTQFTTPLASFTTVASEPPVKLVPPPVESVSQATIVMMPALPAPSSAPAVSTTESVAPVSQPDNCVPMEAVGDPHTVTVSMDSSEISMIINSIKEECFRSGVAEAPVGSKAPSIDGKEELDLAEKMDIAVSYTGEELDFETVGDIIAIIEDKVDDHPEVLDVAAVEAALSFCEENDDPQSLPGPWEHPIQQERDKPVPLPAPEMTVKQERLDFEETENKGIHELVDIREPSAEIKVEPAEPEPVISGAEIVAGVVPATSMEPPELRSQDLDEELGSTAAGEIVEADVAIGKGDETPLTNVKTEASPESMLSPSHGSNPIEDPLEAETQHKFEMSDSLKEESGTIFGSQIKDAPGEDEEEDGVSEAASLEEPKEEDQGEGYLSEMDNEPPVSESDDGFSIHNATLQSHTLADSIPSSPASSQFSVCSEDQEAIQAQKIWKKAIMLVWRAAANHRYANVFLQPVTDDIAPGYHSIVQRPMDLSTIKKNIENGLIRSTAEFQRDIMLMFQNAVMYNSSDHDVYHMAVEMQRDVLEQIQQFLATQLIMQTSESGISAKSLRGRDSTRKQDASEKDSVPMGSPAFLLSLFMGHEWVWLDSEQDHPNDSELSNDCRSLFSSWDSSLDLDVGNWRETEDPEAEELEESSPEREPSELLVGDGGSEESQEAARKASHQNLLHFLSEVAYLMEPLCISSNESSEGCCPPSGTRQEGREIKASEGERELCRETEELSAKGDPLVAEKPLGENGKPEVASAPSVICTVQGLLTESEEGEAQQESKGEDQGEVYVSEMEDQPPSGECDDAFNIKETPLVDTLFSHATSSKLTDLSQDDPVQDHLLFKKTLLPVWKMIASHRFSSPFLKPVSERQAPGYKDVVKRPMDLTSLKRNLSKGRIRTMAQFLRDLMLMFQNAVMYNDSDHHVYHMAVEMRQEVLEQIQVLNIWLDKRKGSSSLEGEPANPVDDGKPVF
UniProt Q9H0W9: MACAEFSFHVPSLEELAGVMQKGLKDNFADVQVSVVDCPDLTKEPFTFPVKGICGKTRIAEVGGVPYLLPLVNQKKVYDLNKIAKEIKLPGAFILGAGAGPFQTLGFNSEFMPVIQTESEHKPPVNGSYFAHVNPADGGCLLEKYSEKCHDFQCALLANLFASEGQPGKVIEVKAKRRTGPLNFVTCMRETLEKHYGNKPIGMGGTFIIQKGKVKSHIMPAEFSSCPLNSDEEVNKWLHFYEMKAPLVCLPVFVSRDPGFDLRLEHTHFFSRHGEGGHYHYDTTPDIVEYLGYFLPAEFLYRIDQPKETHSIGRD
UniProt P41223: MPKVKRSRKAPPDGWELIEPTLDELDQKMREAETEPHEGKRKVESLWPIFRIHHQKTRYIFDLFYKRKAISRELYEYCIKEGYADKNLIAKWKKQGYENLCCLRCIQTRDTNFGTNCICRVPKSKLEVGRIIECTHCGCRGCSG
UniProt Q9HAS0: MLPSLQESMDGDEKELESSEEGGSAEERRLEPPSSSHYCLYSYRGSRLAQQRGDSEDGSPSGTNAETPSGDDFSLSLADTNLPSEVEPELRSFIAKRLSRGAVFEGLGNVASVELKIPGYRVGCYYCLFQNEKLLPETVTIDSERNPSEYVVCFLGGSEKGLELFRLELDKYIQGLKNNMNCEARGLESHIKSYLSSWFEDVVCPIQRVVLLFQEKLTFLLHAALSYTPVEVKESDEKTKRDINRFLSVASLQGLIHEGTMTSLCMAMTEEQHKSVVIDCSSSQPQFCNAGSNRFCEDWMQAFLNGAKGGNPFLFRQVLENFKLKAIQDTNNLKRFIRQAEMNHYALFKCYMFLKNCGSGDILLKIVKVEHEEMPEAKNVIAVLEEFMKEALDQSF
UniProt Q5JPI3: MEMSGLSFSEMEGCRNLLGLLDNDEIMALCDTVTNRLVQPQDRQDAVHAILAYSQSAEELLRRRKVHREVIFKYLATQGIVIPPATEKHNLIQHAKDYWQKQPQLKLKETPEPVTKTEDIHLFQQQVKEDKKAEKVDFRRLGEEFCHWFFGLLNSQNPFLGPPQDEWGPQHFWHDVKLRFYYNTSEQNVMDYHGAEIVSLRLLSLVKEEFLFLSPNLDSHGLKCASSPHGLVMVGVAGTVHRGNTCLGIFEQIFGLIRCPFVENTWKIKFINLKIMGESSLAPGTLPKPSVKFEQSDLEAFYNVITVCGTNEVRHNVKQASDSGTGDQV
UniProt Q9Y376: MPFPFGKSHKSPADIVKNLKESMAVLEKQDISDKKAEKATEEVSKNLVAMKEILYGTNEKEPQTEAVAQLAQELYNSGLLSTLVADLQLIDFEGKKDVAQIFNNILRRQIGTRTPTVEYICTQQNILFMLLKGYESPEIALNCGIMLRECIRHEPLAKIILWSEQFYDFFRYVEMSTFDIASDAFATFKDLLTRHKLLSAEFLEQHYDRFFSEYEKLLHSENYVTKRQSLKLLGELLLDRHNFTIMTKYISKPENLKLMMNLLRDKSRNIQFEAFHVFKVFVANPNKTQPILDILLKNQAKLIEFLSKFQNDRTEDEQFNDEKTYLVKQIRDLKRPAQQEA
UniProt Q9BX70: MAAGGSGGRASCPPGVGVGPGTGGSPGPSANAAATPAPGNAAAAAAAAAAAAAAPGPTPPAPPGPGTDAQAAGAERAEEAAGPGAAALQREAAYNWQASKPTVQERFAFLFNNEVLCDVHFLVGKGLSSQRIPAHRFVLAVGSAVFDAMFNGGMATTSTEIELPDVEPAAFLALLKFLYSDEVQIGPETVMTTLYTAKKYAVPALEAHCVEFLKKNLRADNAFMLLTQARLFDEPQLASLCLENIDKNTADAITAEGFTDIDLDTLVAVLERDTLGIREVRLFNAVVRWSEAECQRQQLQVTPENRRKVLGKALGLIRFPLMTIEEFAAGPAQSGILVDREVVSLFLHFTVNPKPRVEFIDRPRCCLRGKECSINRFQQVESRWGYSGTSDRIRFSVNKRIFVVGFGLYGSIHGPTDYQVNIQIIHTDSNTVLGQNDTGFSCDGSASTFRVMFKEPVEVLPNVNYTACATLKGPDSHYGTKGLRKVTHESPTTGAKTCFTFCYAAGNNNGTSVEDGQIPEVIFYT

What follows are targets tested with CC1Cc2ccccc2N1C(=O)C1CCCN(C1)C(=O)CCl (mixture of isomers) [TRIM25 ligand 11 (diastereomer mixture)] (assay: probe-labelled cysteine peptide fold change vs DMSO (competition) (log2 fold change); higher = less target engagement (more negative = stronger competition)). Settings: 10 µM; THP-1; incubation time: 4 h.
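Further: competitive chemoproteomic profiling in live THP-1 cells with an iodoacetamide desthiobiotin (IA-DTB) probe, comparing probe-labelled peptide intensities in compound-treated cells against DMSO-treated controls.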

Row | Target | probe-labelled cysteine peptide fold change
1 | CAND2_O75155_375_CIAALISSRPDLLPDFHCTLAPVLIR (UniProt O75155) | 0.0844
2 | BRD9_Q9H8M2_288_EVISCMFEPEGNACSLTDSTAEEHVLALVEHAADEAR (UniProt Q9H8M2) | -0.288
3 | BUB1B_O60566_51_IMSTLQGALAQESACNNTLQQQK (UniProt O60566) | -0.0291
4 | CAD_P27708_379_LCPPGIPTPGSGLPPPR (UniProt P27708) | 0.241
5 | CAMK1_Q14012_267_FTCEQALQHPWIAGDTALDK (UniProt Q14012) | 0.0431
6 | BST1_Q10588_259_DMGFQYSCINDYRPVK (UniProt Q10588) | 0.0142
7 | CAND1_Q86VP6_802_CVAALTR (UniProt Q86VP6) | -0.00141
8 | C8orf82_Q6P1X6_66_NFITCFK (UniProt Q6P1X6) | 0.0466
9 | BPTF_Q12830_506_VQLAELIDCLDK (UniProt Q12830) | -0.0858
10 | C12orf49_Q9H741_93_HLITDELGYVCER (UniProt Q9H741) | -0.136
11 | BRD8_Q9H0E9_26_LCLASSVMR (UniProt Q9H0E9) | -0.223
12 | BRCA1_P38398_1513_WYMHSCSGSLQNR (UniProt P38398) | 0.0311
13 | CAMK2D_Q13557_273_HPWICQR (UniProt Q13557) | -0.213
14 | BRAT1_Q6PJG6_54_TVTEGESSVVLLQEHPCLVELLSHVLK (UniProt Q6PJG6) | 0.0628
15 | C11orf54_Q9H0W9_154_CHDFQCALLANLFASEGQPGK (UniProt Q9H0W9) | -0.101
16 | C7_P10643_743_RILPLTVCK (UniProt P10643) | 0.501
17 | BTN3A3_O00478_512_ILTLEPTALTICPIPK (UniProt O00478) | 0.101
18 | BRIP1_Q9BX63_332_ISDQHTLQTFQGMCK (UniProt Q9BX63) | 0.111
19 | CAND1_Q86VP6_356_CLDAVVSTR (UniProt Q86VP6) | 0.0296
20 | BUD31_P41223_102_QGYENLCCLR (UniProt P41223) | 0.0949

Row | Target | probe-labelled cysteine peptide fold change
21 | CAMK2B_Q13554_116_EYYSEADASHCIQQILEAVLHCHQMGVVHR (UniProt Q13554) | -0.000112
22 | CAD_P27708_1636_GLPVTCEVAPHHLFLSHDDLER (UniProt P27708) | -0.112
23 | C15orf39_Q6ZRI6_831_CPFPHVVR (UniProt Q6ZRI6) | 0.0287
24 | C17orf75_Q9HAS0_182_NNMNCEAR (UniProt Q9HAS0) | -0.0675
25 | CAD_P27708_1215_VIECNVR (UniProt P27708) | 0.0725
26 | BZW2_Q9Y6E2_97_MTNHCVFSANEDHETIR (UniProt Q9Y6E2) | 0.0541
27 | C3orf38_Q5JPI3_224_CASSPHGLVMVGVAGTVHR (UniProt Q5JPI3) | 0.301
28 | CALCOCO2_Q13137_321_LSENEIICNALQR (UniProt Q13137) | -0.161
29 | BRWD3_Q6RI45_202_IFTGSDDCLVK (UniProt Q6RI45) | 0.176
30 | CAMKK1_Q8N5S9_351_CPFIDDFILALHR (UniProt Q8N5S9) | -0.277
31 | CAB39_Q9Y376_121_TPTVEYICTQQNILFMLLK (UniProt Q9Y376) | -0.289
32 | CALR_P27797_105_HEQNIDCGGGYVK (UniProt P27797) | 0.00844
33 | BRIP1_Q9BX63_283_DHTCVHPEVVGNFNR (UniProt Q9BX63) | 0.128
34 | CAND1_Q86VP6_413_QTRPVQSWLCDPDAMEQGETPLTMLQSQVPNIVK (UniProt Q86VP6) | 0.0295
35 | BRCC3_P46736_38_EEVMGLCIGELNDDTR (UniProt P46736) | -0.0467
36 | BTBD2_Q9BX70_241_LFDEPQLASLCLENIDK (UniProt Q9BX70) | 0.22
37 | CAMK2D_Q13557_116+127_EYYSEADASHCIQQILESVNHCHLNGIVHR (UniProt Q13557) | 0.0655
38 | BST1_Q10588_144_VADFLSWCR (UniProt Q10588) | 0.0489
39 | C17orf75_Q9HAS0_296_FCEDWMQAFLNGAK (UniProt Q9HAS0) | 0.221

Same assay, conditions: 50 µM; THP-1; incubation time: 4 h

Row | Target | probe-labelled cysteine peptide fold change
40 | CAND2_O75155_375_CIAALISSRPDLLPDFHCTLAPVLIR (UniProt O75155) | -0.333
41 | BRD9_Q9H8M2_288_EVISCMFEPEGNACSLTDSTAEEHVLALVEHAADEAR (UniProt Q9H8M2) | -0.119
42 | BUB1B_O60566_51_IMSTLQGALAQESACNNTLQQQK (UniProt O60566) | -0.087
43 | CAD_P27708_379_LCPPGIPTPGSGLPPPR (UniProt P27708) | -0.136
44 | CAMK1_Q14012_267_FTCEQALQHPWIAGDTALDK (UniProt Q14012) | 0.0321
45 | BST1_Q10588_259_DMGFQYSCINDYRPVK (UniProt Q10588) | 0.0159
46 | CAND1_Q86VP6_802_CVAALTR (UniProt Q86VP6) | 0.102
47 | C8orf82_Q6P1X6_66_NFITCFK (UniProt Q6P1X6) | 0.291
48 | BPTF_Q12830_506_VQLAELIDCLDK (UniProt Q12830) | 0.228
49 | C12orf49_Q9H741_93_HLITDELGYVCER (UniProt Q9H741) | -0.121
50 | BRD8_Q9H0E9_26_LCLASSVMR (UniProt Q9H0E9) | 0.044
51 | BRCA1_P38398_1513_WYMHSCSGSLQNR (UniProt P38398) | -0.124
52 | CAMK2D_Q13557_273_HPWICQR (UniProt Q13557) | -0.0433
53 | BRAT1_Q6PJG6_54_TVTEGESSVVLLQEHPCLVELLSHVLK (UniProt Q6PJG6) | -0.125
54 | C11orf54_Q9H0W9_154_CHDFQCALLANLFASEGQPGK (UniProt Q9H0W9) | -0.104
55 | C7_P10643_743_RILPLTVCK (UniProt P10643) | 0.329
56 | BTN3A3_O00478_512_ILTLEPTALTICPIPK (UniProt O00478) | 0.188
57 | BRIP1_Q9BX63_332_ISDQHTLQTFQGMCK (UniProt Q9BX63) | 0.0335
58 | CAND1_Q86VP6_356_CLDAVVSTR (UniProt Q86VP6) | 0.129
59 | BUD31_P41223_102_QGYENLCCLR (UniProt P41223) | 0.0889

Row | Target | probe-labelled cysteine peptide fold change
60 | CAMK2B_Q13554_116_EYYSEADASHCIQQILEAVLHCHQMGVVHR (UniProt Q13554) | -0.229
61 | CAD_P27708_1636_GLPVTCEVAPHHLFLSHDDLER (UniProt P27708) | -0.0632
62 | C15orf39_Q6ZRI6_831_CPFPHVVR (UniProt Q6ZRI6) | 0.0831
63 | C17orf75_Q9HAS0_182_NNMNCEAR (UniProt Q9HAS0) | -0.169
64 | CAD_P27708_1215_VIECNVR (UniProt P27708) | 0.211
65 | BZW2_Q9Y6E2_97_MTNHCVFSANEDHETIR (UniProt Q9Y6E2) | -0.0628
66 | C3orf38_Q5JPI3_224_CASSPHGLVMVGVAGTVHR (UniProt Q5JPI3) | 0.288
67 | CALCOCO2_Q13137_321_LSENEIICNALQR (UniProt Q13137) | -0.076
68 | BRWD3_Q6RI45_202_IFTGSDDCLVK (UniProt Q6RI45) | 0.155
69 | CAMKK1_Q8N5S9_351_CPFIDDFILALHR (UniProt Q8N5S9) | 0.12
70 | CAB39_Q9Y376_121_TPTVEYICTQQNILFMLLK (UniProt Q9Y376) | 0.386
71 | CALR_P27797_105_HEQNIDCGGGYVK (UniProt P27797) | -0.0654
72 | BRIP1_Q9BX63_283_DHTCVHPEVVGNFNR (UniProt Q9BX63) | 0.0739
73 | CAND1_Q86VP6_413_QTRPVQSWLCDPDAMEQGETPLTMLQSQVPNIVK (UniProt Q86VP6) | -0.224
74 | BRCC3_P46736_38_EEVMGLCIGELNDDTR (UniProt P46736) | -0.117
75 | BTBD2_Q9BX70_241_LFDEPQLASLCLENIDK (UniProt Q9BX70) | 0.0147
76 | CAMK2D_Q13557_116+127_EYYSEADASHCIQQILESVNHCHLNGIVHR (UniProt Q13557) | -0.00265
77 | BST1_Q10588_144_VADFLSWCR (UniProt Q10588) | 0.29
78 | C17orf75_Q9HAS0_296_FCEDWMQAFLNGAK (UniProt Q9HAS0) | 0.34
